# The list shows a part of the results. Shown are side measurements of this screen, not its main read-out; they come without a call. Most of these compounds were active or inconclusive in the main read-out, so they are no random draw. Words in brackets tell the shape of the fitted curve; partial curves, single points and poor fits give uncertain potencies.
# Assay: qHTS Assay for Lipid Storage Modulators in Drosophila S3 Cells;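 on cell number change: cells counted by Cell Tracker Red CMTPX staining in the red channel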
# Conditions: BODIPY lipid droplet fluorescence, 18-24 h; for cell number change: measured here: cell count max response, cells fed with added oleic acid
# Procedure, shortened: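 Drosophila S3 cells loaded with oleic acid (400 uM, as added) and compounds at several concentrations; lipid droplets imaged by 488-nm laser-scanning cytometry, 500–530 nm intensity and object ratio to cell channel. Percent activity normalized to 20 uM Triacsin C.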
# [1] = measured here: cell number channel AC50, cells fed with added oleic acid
# [2] = measured here: lipid fluorescence (Fed channel) AC50, cells fed with added oleic acid
SMILES,cell number change,AC50 [1],AC50 [2]
C/C(=N/Nc1ccnc2cc(Cl)ccc12)c1ccc(N)cc1,-41.9%,"14.6 µM [falling, single point]","23.1 µM [falling, single point]"
COc1ccc2nc(C)cc(SCC(=O)NNC(=O)COc3ccccc3)c2c1,-12.9%,,"10.3 µM [falling, single point]"
Cc1ccc(Sc2ncccc2C(=O)O)cc1C,-7.72%,"6.51 µM [falling, single point]","0.366 µM [rising, partial curve]"
N#Cc1ccc(S(=O)(=O)NC2CC2)cc1,,"0.0461 µM [rising, full curve]","35.5 µM [rising, single point]"
CC(c1ccc(Br)cc1)N1CC23C=CC(O2)C(C(=O)O)C3C1=O (stereo unspecified),36%,"6.51 µM [rising, single point]","29.1 µM [rising, partial curve, poor fit]"
CCN(C(=O)CN1C(=O)c2ccccc2S1(=O)=O)C1CCCCC1,-14.1%,,
CN1CCN(C(=O)CCNC(=O)Cn2ccc3ccccc3c2=O)CC1,4.9%,,"0.00461 µM [falling, full curve, poor fit]"
COC(=O)CNC(=O)C(C)NC(=O)OCc1ccccc1 (stereo unspecified),-3.94%,,"0.0517 µM [falling, full curve]"
COc1ccc(NC(=O)C2CCC2)cc1S(=O)(=O)N1CCOCC1,0.871%,,"1.84 µM [rising, partial curve]"
Cc1sc2nc(CN3CCOCC3)nc(N3CCOCC3)c2c1C,,"1.46 µM [rising, partial curve]","3.66 µM [rising, partial curve, poor fit]"
CN(C)CCCN(C(=O)CCc1ccccc1)c1nc2ccc(Cl)cc2s1,-39.1%,"14.6 µM [falling, partial curve, poor fit]","14.6 µM [falling, single point]"
COc1ccc(CN2C(=NC(=O)c3ccccc3)SC3CS(=O)(=O)CC32)cc1OC (stereo unspecified),-34.7%,"14.6 µM [falling, partial curve]","29.1 µM [falling, single point]"
CC(C)Sc1nc2ccsc2c(=O)[nH]1,7.86%,"6.51 µM [falling, single point]",
Cc1ccsc1C(=O)OCC(=O)Nc1cccc(S(=O)(=O)NC2=NCCCCC2)c1,,,"6.51 µM [rising, single point]"
CC(=O)N1CCCN(Cc2cn(-c3ccc(C)cc3)nc2-c2ccc(F)cc2)CC1,1.91%,,"29.1 µM [rising, single point]"
O=C(Nc1cccc(-c2cn3ccccc3n2)c1)c1cccc(Cl)c1,-143%,,"23.1 µM [falling, single point]"
O=C(c1cccn2c(=O)c3cc(Cl)ccc3nc12)N1CCOCC1,,,"6.51 µM [falling, partial curve, poor fit]"
N#CC1=C(N)c2ccccc2CC12CCCCC2,-38.2%,"23.1 µM [falling, single point]",
O=C(O)c1cc(-c2ccccc2)nc2ccccc12,5.24%,,"29.1 µM [rising, single point]"
Cc1ccc(NC(=O)c2ccc3c(c2)OCO3)cc1Cl,-11.2%,,"0.00517 µM [falling, full curve, poor fit]"

# Limited to cell number change and AC50 [1] (four entries from above):
SMILES	cell number change	AC50 [1]
Cc1ccc(Sc2ncccc2C(=O)O)cc1C	-7.72%	6.51 µM [falling, single point]
N#Cc1ccc(S(=O)(=O)NC2CC2)cc1		0.0461 µM [rising, full curve]
CC(c1ccc(Br)cc1)N1CC23C=CC(O2)C(C(=O)O)C3C1=O (stereo unspecified)	36%	6.51 µM [rising, single point]
CCN(C(=O)CN1C(=O)c2ccccc2S1(=O)=O)C1CCCCC1	-14.1%	

# The list goes on.

SMILES,cell number change,AC50 [1],AC50 [2]
COc1cccc(NC(=O)C(=O)N2CCOCC2)c1,1.13%,,"0.259 µM [falling, partial curve, poor fit]"
CCN(CC(=O)NC1CCS(=O)(=O)C1)S(=O)(=O)c1cccc(C(C)=O)c1 (stereo unspecified),-39.2%,"0.184 µM [falling, full curve]","0.517 µM [falling, full curve]"
O=C(Nc1cccc(NC(=O)c2ccco2)c1)c1cccc(Br)c1,24.6%,,"1.16 µM [rising, single point]"
COc1cc(NC(=O)c2ccc([N+](=O)[O-])cc2)ccc1NC(=O)C(C)C,-3.43%,,
CCOC(=O)N1CCN(C(=O)C(CC(C)C)NS(=O)(=O)c2ccc(C)cc2)CC1 (stereo unspecified),1.5%,,"29.1 µM [falling, single point]"
CN1CCC(N(C)S(=O)(=O)c2ccc(F)cc2F)CC1,44.4%,"0.164 µM [rising, full curve]","0.58 µM [rising, single point]"
Cc1ccccc1COc1ccc2oc(C)c(C(=O)O)c2c1,1.07%,,
O=C1OCc2cc(NC(=O)C3CCCCC3)ccc21,-2.87%,,"0.116 µM [falling, full curve, poor fit]"
CC(N=C1NS(=O)(=O)c2ccccc21)C(=O)N1CCc2ccccc2C1 (stereo unspecified),31.1%,"32.6 µM [rising, single point]",
O=C1c2ccccc2-c2cccc(C(=O)N3CCN(C(=O)c4ccccc4)CC3)c21,,"6.51 µM [falling, single point]","6.51 µM [falling, single point]"
Cc1cc(C)nc(CCNC(=O)c2cc(COc3ccccc3)on2)n1,-11.5%,"0.00517 µM [falling, full curve, poor fit]",
Clc1ccccc1/C=N/Nc1cc(N2CCOCC2)ncn1,31.4%,"29.1 µM [rising, single point]",
Cc1cccnc1NC(=O)Cn1nc([N+](=O)[O-])cc1C,20.5%,,
CC1Cc2ccccc2N1C(=O)COC(=O)c1ccc(Cl)c(S(=O)(=O)N2CCOCC2)c1 (stereo unspecified),-1.42%,,"1.3 µM [rising, full curve, poor fit]"
CCOc1cc(C(=O)NCc2ccncc2)cc(OCC)c1OCC,49.6%,"7.31 µM [falling, single point]",
O=C(O)c1cnn2c(C(F)F)cc(C3CC3)nc12,2.66%,,"6.51 µM [falling, single point]"
O=C(CSc1nc(-c2ccccc2)cs1)N1CCN(C(=O)c2ccco2)CC1,-13.6%,,"1.84 µM [rising, partial curve, poor fit]"
Cc1nn(C)c(Oc2cccc(Cl)c2)c1C(=O)O,3.68%,"0.651 µM [falling, full curve, poor fit]","3.66 µM [falling, single point]"
CC1CCN(c2ccc(NC(=O)c3cccnc3)cc2)CC1,,,"13 µM [falling, partial curve]"
CS(=O)CSc1nc2c(cc1C#N)CCCC2 (stereo unspecified),16.6%,,

SMILES,cell number change,AC50 [1],AC50 [2]
Cc1cc(C)cc(NC(=O)C2C3C=CC(O3)C2C(=O)O)c1 (stereo unspecified),6.35%,,"6.51 µM [falling, single point]"
Cc1cc(/C=C2/SC(=S)N(c3ccc([N+](=O)[O-])cc3)C2=O)c(C)n1-c1cccnc1,-75.1%,"1.64 µM [falling, full curve]","1.3 µM [falling, full curve]"
COc1ccc(S(=O)(=O)N2CCCN(S(=O)(=O)c3ccc(OC)c(C)c3)CC2)cc1C,-26.8%,,"23.1 µM [falling, partial curve, poor fit]"
CCCc1cc(-c2nc(N)ncc2-c2ccc3c(c2)OCCCO3)c(O)cc1OC,-117%,"1.84 µM [rising, partial curve]","1.84 µM [rising, partial curve]"
O=C(c1ccco1)N1CCN(C(=O)c2ccc(COc3ccc(F)cc3)o2)CC1,-20.4%,"3.66 µM [falling, full curve, poor fit]","4.11 µM [falling, full curve, poor fit]"
CC(C)C(NS(=O)(=O)c1cccc(C(F)(F)F)c1)C(=O)N1CCc2ccccc2C1 (stereo unspecified),18.4%,,
CCc1cc2c(CN(C)Cc3ccccc3F)cc(=O)oc2cc1O,19.4%,,"0.291 µM [rising, partial curve, poor fit]"
CCOCCCNC(=O)c1cn(C)c2ccc(S(=O)(=O)N3CCCCC3)cc2c1=O,-23.9%,"0.0411 µM [falling, full curve, poor fit]","2.06 µM [rising, partial curve]"
O=C(CCc1nc(-c2ccccc2)c(-c2ccccc2)o1)OCc1ccc(Br)cc1,7.75%,,
Cc1ccc(OCCOCCN2CCN(C)CC2)c(C(C)(C)C)c1,-3.57%,,"6.51 µM [rising, single point]"
COc1cccc(CN2CC(C(=O)NCCCc3ccc(C)cc3)CCC2=O)c1 (stereo unspecified),-15.3%,,
Cc1c(NC(=O)CCN2C(=O)c3ccccc3C2=O)c(=O)n(-c2ccccc2)n1C,-19.3%,,
Cc1ccc(/C=C2/Sc3ccc(C(=O)N4CCN(C)CC4)cc3NC2=O)cc1,,,"23.1 µM [rising, single point]"
O=[N+]([O-])c1ccc(Sc2cccc3cccnc23)cc1,,"4.11 µM [rising, single point]",
COC(=O)c1ccsc1NC(=O)CN1CCN(c2ccc(F)cc2)CC1,21.4%,,"10.3 µM [rising, partial curve]"
CC(OC(=O)C1=COCCO1)C(=O)Nc1cc(S(=O)(=O)N2CCCCC2)ccc1Cl (stereo unspecified),-13.2%,,"4.11 µM [falling, single point]"
COc1ccc(CCC(=O)Nc2sc(C(=O)N(C)C)c(C)c2C#N)cc1,-7.18%,,"6.51 µM [rising, single point]"
COc1cc2ccccc2cc1C(=O)NC(=S)Nc1ccc(C(=O)O)cc1,,,"20.6 µM [falling, partial curve]"
CC(=O)C12C3C4C(C5C1C3C5(Br)C41OCCO1)C21OCCO1 (stereo unspecified),-39.4%,"1.84 µM [falling, partial curve, poor fit]","23.1 µM [falling, single point]"

# Source: PubChem BioAssay AID2685 (National Center for Advancing Translational Sciences (NCATS), 2010)
